Some entries share one result that the patent states for a list of compounds.
System: MIAPaCa-2 cells
Assay: apoptosis by Annexin V/PI flow cytometry
Assay type: cell-based, human
Conditions: MIAPaCa-2 starved 3 hrs, mAb W9 10 μg/ml, cyclopamine 20 μM, 5-FU 10 μM, 24 hrs

O=c1[nH]cc(F)c(=O)[nH]1 [5-FU, 5-fluorouracil, reference compound]
cells in which apoptosis was induced: less than 35%
